Results from the supplement of paper PMC3334620.
Whole data set: some 33,000 sequences, median “E-score (-0.5 to 0.5)” near -0.0059, cut for the highest 2% near 0.26. The list shows a part of the results.

Molecular target: T1, Cin5 (UniProt P40917)
T1 sequence: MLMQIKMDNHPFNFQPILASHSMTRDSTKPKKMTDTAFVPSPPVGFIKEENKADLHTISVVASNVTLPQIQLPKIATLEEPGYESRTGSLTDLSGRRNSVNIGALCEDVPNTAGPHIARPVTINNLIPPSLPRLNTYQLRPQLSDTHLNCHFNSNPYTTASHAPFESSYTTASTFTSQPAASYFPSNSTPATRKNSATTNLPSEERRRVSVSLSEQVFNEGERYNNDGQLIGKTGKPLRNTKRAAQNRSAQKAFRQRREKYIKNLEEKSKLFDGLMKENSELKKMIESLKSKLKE
Assay: PBM E-score (8-mer binding enrichment) (E-score (-0.5 to 0.5)); higher = stronger / more preferred TF binding
Details: protein concentration: 100 nM; construct: GST-full length
Procedure, shortened: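 Universal all-10-mer Agilent arrays, double-stranded by primer extension on fresh or once-stripped slides, were probed with about 100-200 nM GST-tagged yeast transcription factors made by PURExpress. Fluorescent anti-GST detected bound protein, and masliner normalised the scans. E-scores from the Universal PBM Analysis Suite were given to each ungapped eight-base word pooled with its reverse complement.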

Sequence	PBM E-score
CGACACTA	-0.0512
AGAACAAC	0.0386
CATTTATA	0.211
CTGGTTCA	-0.167
AAGCCCTT	-0.155
CATACCCA	0.086
AGGGGACG	-0.145
AATAAGTA	0.248
ATCTTTCA	0.142
AGTCTTGC	-0.0489
GGGGTTCA	-0.0521
AGTCCAAC	-0.102
AGATTTGA	0.147
GCGCCCTA	-0.187
GTGTACGA	-0.014
ACAAGCAC	-0.0424
AAAAAGTG	-0.0328
CCGGTCGC	-0.124
CCTGAAAA	-0.101
ATAGTGAT	0.0417
GCCCAGAC	-0.309
ACTCTTAC	0.149
AAGTGTAG	0.0123
CGGTCCGA	-0.0643
TAGAAAGA	0.0209

Sequence	PBM E-score
AATAGGAG	-0.303
GACGCAGC	-0.186
ACTAGGAG	-0.16
AATTGAAG	-0.0129
AGAAGCGC	0.0405
ATCCTTGA	0.0934
CGAGATGC	0.00818
ACCCTCAA	-0.194
GGGACCCA	-0.124
ATATCAGG	-0.0242
AATTTCCG	0.18
ATTTCAAA	0.164
CACGCGCA	-0.149
AATAGCTG	0.0377
CCTCCGCC	-0.175
GGTGGGAA	0.0286
CTATAGTA	0.109
AGTAGGCG	-0.00702
CAACTCGA	0.108
ACGACTGA	-0.0442
TACTGTAA	0.184
CGCCATGA	-0.043
ATTGTCTC	-0.017
TGAAACCA	0.157
AGCCTTAT	-0.00116

Sequence	PBM E-score
GACGGACA	0.194
GGGATCAA	-0.0601
CGGTGGAG	-0.136
CTCAAGCC	-0.13
CGGCCGAA	0.0508
GAGAGAGC	-0.275
CTATCCAG	-0.0759
AGTAGCTA	0.158
GAATGCGA	0.0823
AGCATACA	-0.141
GGTAGCAC	-0.152
GTTTCGGA	-0.0625
AAGTAATT	0.181
AGGCCGTG	-0.0992
ATTATTTC	0.3
CCTCCCAG	-0.298
CACAACGC	0.0644
AATTGCAA	0.0827
CCCAGCGC	-0.201
CATGCGCC	-0.0427
AACAGGTT	-0.0011
AGTTCATG	0.171
CAATCAGC	-0.0118
ATGACGTC	0.255
AATTGATG	0.246

Sequence	PBM E-score
AAGGTCTC	-0.206
GCAACGAA	0.17
ATCTAAAC	-0.0621
TTCGCAAA	0.218
AACCCCTG	-0.172
ACTGCCAA	-0.0251
AGTTGATC	0.0859
AGGAGAAT	-0.0675
AGAATATC	0.113
ACGAACGA	0.0977
GTTTGTGA	0.0178
AGACATGG	0.122
AGACGTGA	0.112
CGTCATGC	0.0536
ATCAATGG	0.0495
AACTGAGC	-0.145
CCGATAGG	0.0342
CTGCCACC	-0.266
ACAAGCGC	0.0323
ACCGAATC	-0.0204
GCATGTCC	-0.192
ACGCATCT	0.0745
CAGTCGCA	-0.106
TGTAGACA	0.0508
CGGCTCAG	-0.0147

Rewritten in markdown: entries from further up.

| Sequence | PBM E-score |
| --- | --- |
| GGGGTTCA | -0.0521 |
| ACAAGCAC | -0.0424 |
| AGCCTTAT | -0.00116 |
| CAGTCGCA | -0.106 |

The list continues:

Sequence	PBM E-score
CATGATAA	0.195
CTGTTCTA	-0.0447
CTCGGAAC	0.0456
ATCGTGTA	0.0563
ACGCATAG	-0.0217
CACACCTA	-0.00955
CGGGGCCA	-0.187
ACTGGCAT	-0.144
CAATTATG	0.141
ACGCATAT	0.171
TATTACGA	0.257
CCTCGTTC	-0.174
ATATTGAT	0.249
ATCAAACA	0.274
AATCCCAA	0.0459
TTTCGAAA	0.0829
AGGTACTG	-0.0631
GGGACCAC	-0.174
ATTAGACA	0.0378
ACGGAGAT	-0.0366
AAATTAAC	0.182
AGCCGATG	-0.023
CTGGTCCC	-0.308
CCAACGAG	-0.121
AACTATTA	0.193

Sequence	PBM E-score
ACTTAATG	0.227
ATATTATG	0.379
GTCGCTAA	0.0236
ATATGCAA	0.0615
CATCCTCG	-0.0784
AGCGTTCC	0.00059
GATTAATC	0.145
CTATTGAG	0.144
CTACTCTA	0.0932
GATCTGAC	-0.0318
CGATTAAA	0.156
ATTTGGTA	0.252
CCCGGGTC	-0.141
AGCGCGGC	-0.0509
CGGGTAAA	0.183
AGGGCTCG	-0.248
AAGAAATG	0.147
CCTCACCA	-0.00298
ACCGAGGG	-0.414
AAGTGGTA	0.0427
ATTTTTGA	0.135
CCAACTAC	0.0604
CCGCTCAG	-0.172
CCATCGAG	0.0359
TATTAATA	0.297

2 records drawn at random from the list so far:
Sequence	PBM E-score
CATCCTCG	-0.0784
GTCGCTAA	0.0236

The results go on.

Sequence	PBM E-score
CTCCTCGA	-0.13
ACGGACAC	0.0112
CAACACGG	-0.117
CTTCGCGC	0.186
GACACAGA	0.0545
AAGGGACT	-0.0894
CAGCCTAA	-0.202
AAGACTAT	0.0701
AAGATTCA	0.115
CCACGCCG	-0.167
AATGGTTA	0.0582
TCCATAAA	0.064
CGATCCTC	-0.118
ACGTACTC	0.178
CCCTATAA	-0.122
GTCTCCAC	-0.0662
CTCTGGTC	-0.155
AAGGCAGA	-0.035
CAGCGATA	-0.0474
GATCCAGA	0.0366
AGATAATC	0.197
CTGGACTA	-0.116
